Measurements from PubChem BioAssay AID2685 (National Center for Advancing Translational Sciences (NCATS), 2010).
This is one part of the list. The main result of the screen is listed elsewhere. These columns were measured beside it and carry no call. Compounds called inactive in the main read-out are mostly missing here. Words in brackets tell the shape of the fitted curve; partial curves, single points and poor fits give uncertain potencies.

Experiment: qHTS Assay for Lipid Storage Modulators in Drosophila S3 Cells;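 for cell number change: cells counted by Cell Tracker Red CMTPX staining in the red channel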
Settings: BODIPY lipid droplet fluorescence, 18-24 h; for cell number change: measured here: cell count max response, cells fed with added oleic acid
Method in brief: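 Laser-scanning cytometry quantifies lipid droplet accumulation (500–530 nm total intensity; droplet/cell object ratio) in oleic acid-fed (400 uM added) Drosophila S3 cells treated with a concentration series. 20 uM Triacsin C defined 100% inhibition.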

[1] = measured here: lipid fluorescence (Fed channel) AC50, cells fed with added oleic acid
[2] = measured here: cell number channel AC50, cells fed with added oleic acid

CCOC(=O)C1CCN(C(=O)Cc2c(F)cccc2Cl)CC1
cell number change: -1.08% | AC50 [1]: 0.231 µM [falling, full curve, poor fit]

O=C(CN1CCCC1c1cccs1)N1CCN(S(=O)(=O)c2cccc(F)c2)CC1 (stereo unspecified)
cell number change: -5.44% | AC50 [1]: 0.184 µM [rising, full curve, poor fit]

Cc1cc(C)c(C)c(S(=O)(=O)Nc2ccccc2C(=O)NCCCn2ccnc2)c1C
cell number change: 10.6% | AC50 [1]: 0.164 µM [rising, full curve]

CC1(OC(=O)CCc2ccccc2)C(=O)C=C2C=C3CCCN3C=C2C1=O (stereo unspecified)
cell number change: 7.02% | AC50 [1]: 0.146 µM [rising, full curve, poor fit]

CCc1cccc(OCC(=O)Nc2ccc(S(=O)(=O)Nc3onc(C)c3C)cc2)c1
cell number change: 11.5% | AC50 [1]: 0.00517 µM [rising, full curve, poor fit]

CC(=O)NC1CCN(CC(=O)Nc2nccs2)CC1
cell number change: 4.66% | AC50 [1]: 7.31 µM [falling, single point]

COc1ccc(C2/C(=C(/O)c3ccccc3)C(=O)C(=O)N2C)cc1 (stereo unspecified)
cell number change: -34.3% | AC50 [2]: 29.1 µM [falling, single point]

O=C(NN1C(=O)c2cc(Br)ccc2NC1c1cc(Br)cc(Br)c1O)c1ccncc1 (stereo unspecified)
cell number change: 38.9% | AC50 [2]: 7.31 µM [rising, partial curve] | AC50 [1]: 8.2 µM [rising, partial curve]

O=C(COC(=O)COc1ccc(Cl)cc1Cl)NC1CCCCCC1
cell number change: 5.94% | AC50 [1]: 0.00461 µM [rising, full curve, poor fit]

Cc1nn(-c2ccccc2)c(Cl)c1C(=O)OC(C)C(=O)NC(=O)NC1CCCCC1 (stereo unspecified)
cell number change: -16.1% | AC50 [1]: 29.1 µM [falling, single point]

CCOc1ccc(OCC(=O)NCc2n[nH]c(=O)c3ccccc23)cc1
cell number change: 225% | AC50 [2]: 29.1 µM [rising, partial curve]

CC(C)C(=O)Nc1ccccc1Cc1ccccc1
cell number change: 32.1% | AC50 [2]: 5.8 µM [rising, single point]

CCC(C)NC(=O)c1cc2cc3ccc(OC)cc3nc2s1 (stereo unspecified)
cell number change: -14% | AC50 [1]: 29.1 µM [falling, partial curve, poor fit]

COc1ccc(N2CC(C(=O)Nc3ccccc3N3CCCC3)CC2=O)c(OC)c1 (stereo unspecified)
cell number change: 6%

O=C(O)CCN(Cc1ccccc1)S(=O)(=O)c1ccccc1Cl
cell number change: -13.8% | AC50 [2]: 0.206 µM [falling, full curve, poor fit] | AC50 [1]: 0.291 µM [falling, full curve]

C[C@H](NC(=O)C1CC(=O)N(c2ccc3c(c2)OCO3)C1)C(=O)NC1CCCCC1 (stereo partly specified)
cell number change: 6.35% | AC50 [2]: 1.16 µM [rising, full curve, poor fit]

CCOc1ccc(NC(=O)c2ccc3c(=O)n4c(nc3c2)CCCCC4)cc1
AC50 [1]: 0.116 µM [rising, single point]

Cc1ccc(NC(=O)Cc2cn3ccsc3n2)nc1
cell number change: -6.08%

CC(C)NC(=O)COc1coc(CN2CCN(c3cccc(Cl)c3)CC2)cc1=O
cell number change: 16.7% | AC50 [1]: 18.4 µM [rising, partial curve]

CCN(CC)c1ccc(-c2n[nH]c(=S)n2-c2ccccc2C)cc1
cell number change: 155% | AC50 [2]: 11.6 µM [rising, partial curve, poor fit]

CCC(C(=O)NCC1CCCO1)N(C(=O)CNS(=O)(=O)c1ccccc1)c1ccc(F)cc1 (stereo unspecified)
cell number change: 11.7% | AC50 [1]: 6.51 µM [rising, single point]

Cc1ccc(Sc2c(C=O)c3ccccc3n2C)cc1
AC50 [2]: 0.92 µM [falling, full curve, poor fit] | AC50 [1]: 0.82 µM [falling, full curve]

Cc1ccc(C)c(-n2sc3ccc(F)cc3c2=O)c1
cell number change: -82.6% | AC50 [2]: 5.8 µM [falling, full curve] | AC50 [1]: 20.6 µM [falling, single point]

Cc1cccc(OCC(=O)NCc2ccncc2)c1C
cell number change: 40.3% | AC50 [2]: 11.6 µM [rising, single point] | AC50 [1]: 6.51 µM [rising, single point]

CCN(C(=O)CN1C(=O)c2ccc([N+](=O)[O-])cc2C1=O)C1CCS(=O)(=O)C1 (stereo unspecified)
cell number change: 2.5%

CN(CCCNC(=O)C1CCN(S(=O)(=O)c2cccc3nsnc23)CC1)Cc1ccccc1
AC50 [1]: 18.4 µM [rising, single point]

N=c1n(Cc2ccccc2)c2ccccc2n1CC(O)c1ccccc1 (stereo unspecified)
cell number change: -39.5% | AC50 [2]: 29.1 µM [falling, single point] | AC50 [1]: 5.17 µM [falling, single point]

O=C(CSc1ccccc1[N+](=O)[O-])NC1CCS(=O)(=O)C1 (stereo unspecified)
cell number change: -8.98% | AC50 [2]: 6.51 µM [rising, single point] | AC50 [1]: 5.17 µM [falling, partial curve]

CCCCNC(=O)Nc1cc(C)on1
cell number change: 3.94%

O=C(O)CCC(=O)N1CCN(c2ccccn2)CC1
cell number change: 49.9%

COc1ccc(NC(=O)c2ccc(C)cc2)cc1
AC50 [1]: 0.731 µM [rising, full curve]

CCC1CCCCN1CCNC(=O)C1CCN(S(=O)(=O)c2cccc3nsnc23)CC1 (stereo unspecified)
cell number change: -14.3% | AC50 [1]: 16.4 µM [rising, partial curve]

O=C(O)COc1ccc2oc3ccccc3c2c1
cell number change: 15%

Cc1cccc(NC(=O)CCNC(=O)c2ccc(Br)cc2)c1
cell number change: 38.9% | AC50 [2]: 11.6 µM [rising, partial curve, poor fit] | AC50 [1]: 29.1 µM [rising, single point]

CN1CCN(c2ccc(NS(=O)(=O)c3ccc(Cl)cc3)cn2)CC1
cell number change: -36.2% | AC50 [2]: 6.51 µM [falling, single point]

COc1ccccc1C(=O)NNC(=S)Nc1ccccc1
cell number change: 2.25%

CCC1Oc2ccccc2N(CC(=O)NC2CCCCC2C)C1=O (stereo unspecified)
AC50 [1]: 29.1 µM [falling, single point]

Cc1cc(C)c(S(=O)(=O)NCc2cccs2)cc1C
cell number change: -8.01% | AC50 [1]: 23.1 µM [falling, single point]

Fc1ccc(/C=N/Nc2ccccn2)cc1
cell number change: -33.3% | AC50 [2]: 29.1 µM [falling, single point]

Cc1c(NC(=O)c2ccc3nsnc3c2)cccc1[N+](=O)[O-]
cell number change: 16.5%

CC1CCc2nc(N)c(C#N)c(-c3ccncc3)c2C1 (stereo unspecified)
cell number change: 30.2% | AC50 [2]: 16.4 µM [rising, partial curve] | AC50 [1]: 4.11 µM [rising, partial curve, poor fit]

COc1cc(C(=O)NCc2cccc3ccccc23)ccc1OCc1ccccc1
cell number change: 10.3% | AC50 [1]: 2.06 µM [rising, full curve]

Cc1ccccc1OCC1Cn2c(nc3c2c(=O)[nH]c(=O)n3C)O1 (stereo unspecified)
AC50 [1]: 29.1 µM [rising, single point]

C=CCOc1ccc(C2/C(=C(\O)c3ccc4c(c3)OCCO4)C(=O)C(=O)N2CCCN2CCOCC2)cc1 (stereo unspecified)
cell number change: -0.306% | AC50 [1]: 18.4 µM [rising, single point]

CCOc1ccccc1N(CC(=O)Nc1cccnc1)S(=O)(=O)c1ccc(C)cc1
cell number change: 14.9% | AC50 [1]: 14.6 µM [rising, partial curve, poor fit]

Cc1ccc(-c2nc(CS(=O)(=O)CC(=O)N3CCOCC3)c(C)o2)cc1
cell number change: 5.89% | AC50 [1]: 29.1 µM [rising, single point]

CC(=O)c1ccc(NS(=O)(=O)c2c(C)cc(C)cc2C)cc1
cell number change: -16.3% | AC50 [1]: 20.6 µM [falling, single point]

CC(=O)c1cccc(NC(=O)COC(=O)CC2CC3CCC2C3)c1 (stereo unspecified)
cell number change: -29.9% | AC50 [1]: 32.6 µM [falling, partial curve, poor fit]

Cc1cc(C(F)(F)F)nn1Cc1n[nH]c(=S)n1-c1ccc(Cl)cc1
cell number change: 18.7% | AC50 [1]: 29.1 µM [falling, single point]

COCC(C)N1CCC(n2nccc2NC(=O)CCOc2ccccc2)CC1 (stereo unspecified)
cell number change: -5.87% | AC50 [1]: 0.103 µM [falling, full curve, poor fit]

Cc1noc(C)c1COc1ccc(C(=O)NNC(=O)c2ccccc2F)cc1
cell number change: -8.9% | AC50 [1]: 0.92 µM [rising, full curve, poor fit]

COc1cc(Nc2nc(-c3ccccc3)c3cc(C)ccc3n2)cc(OC)c1OC
cell number change: -41.1% | AC50 [2]: 18.4 µM [falling, single point]

Cc1ccccc1OCC1Cn2c(nc3c2c(=O)n(C)c(=O)n3C)O1 (stereo unspecified)
cell number change: -17.9%

Cc1cc(/C=C2\SC(=O)N(C)C2=O)c(C)n1-c1ccc(O)cc1
cell number change: 1.23% | AC50 [1]: 3.66 µM [rising, partial curve, poor fit]

CC1(C)O[C@@H]2C[C@H]3[C@@H]4CCC5=CC(=O)C=C[C@]5(C)[C@@]4(F)[C@@H](O)C[C@]3(C)[C@]2(C(=O)CO)O1
cell number change: -9.21%

C=C(C)CN1C(=O)c2ccccc2C1=O
cell number change: 37.4% | AC50 [2]: 18.4 µM [rising, partial curve]

CC1CC/C(=N/Nc2ccccc2)C(=O)N1 (stereo unspecified)
cell number change: 7.9% | AC50 [1]: 0.146 µM [rising, full curve, poor fit]

COc1ccc(C2=NOC(C(=O)NCc3ccc(F)cc3)C2)cc1OC (stereo unspecified)
cell number change: 126% | AC50 [2]: 20.6 µM [rising, single point]

O=c1c(C(c2ccc(O)cc2)c2c(O)nc3n(c2=O)CCCS3)c(O)nc2n1CCCS2
cell number change: -13.1% | AC50 [2]: 0.0231 µM [falling, full curve, poor fit] | AC50 [1]: 0.0058 µM [falling, full curve, poor fit]

CCN1CC(CN(C)Cc2nc(-c3ccc(Cl)cc3)no2)CC1=O (stereo unspecified)
cell number change: 6.73%

COc1ccc(NC(=O)c2cc(-c3ccccn3)nc3c(C)cc(C)cc23)c(C)c1
cell number change: -5.56%

CCN(Cc1ccccc1)C(c1ccccn1)c1nnnn1C(C)(C)CC (stereo unspecified)
cell number change: 5.51% | AC50 [1]: 11.6 µM [rising, partial curve]
